Experimental findings from PubChem BioAssay AID256 (DTP/NCI, 2004) are described below.

In this test the test system is CD2F1 mice, L1210 leukemia ip, survival T/C. As to the kind of experiment: NCI In Vivo Anticancer Drug Screen. Data for tumor model L1210 Leukemia (intraperitoneal) in CD2F1 (CDF1) mice. The note with it: higher T/C = longer survival. The method in brief: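 Implant tumor; dose compound or vehicle; measure endpoint in both groups; report treated divided by control.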

Where [1] appears, read: T/C endpoint: mean survival time, dose: 200.0 mg/kg/injection, schedule: Q01DX009 (ip), vehicle: saline with Tween-80.
Setting [2] is: T/C endpoint: mean survival time, dose: 400.0 mg/kg/injection, schedule: Q01DX001 (ip), vehicle: saline with Tween-80.
The mark [3] stands for this setting: T/C endpoint: mean survival time, dose: 400.0 mg/kg/injection, schedule: Q04DX002 (ip), vehicle: saline with Tween-80.
The mark [4] stands for this setting: T/C endpoint: mean survival time, dose: 400.0 mg/kg/injection, schedule: Q04DX003 (ip), vehicle: saline with Tween-80.
The mark [5] stands for this setting: T/C endpoint: mean survival time, dose: 200.0 mg/kg/injection, schedule: Q04DX003 (ip), vehicle: saline with Tween-80.
Where [6] appears, read: T/C endpoint: mean survival time, dose: 100.0 mg/kg/injection, schedule: Q01DX009 (ip), vehicle: saline with Tween-80.
[7] abbreviates: T/C endpoint: mean survival time, dose: 200.0 mg/kg/injection, schedule: Q01DX001 (ip), vehicle: saline with Tween-80.

The list does not hold the whole screen: it gathers tests that were run many times, whatever their T/C, doses with no T/C, and many T/C values between a quarter and a half above the control. Further doses and runs are listed elsewhere. T/C is the treated group as % of the vehicle group. Some doses have a count of surviving animals in place of a T/C: the source holds a T/C of zero for them, seemingly a mark for toxic or unscored doses. Some survivor counts are full or nearly so, which does not show that the dose was tolerated: the source hardly ever lists a survival T/C far under the control, and the zero likely stands for such cases as well. Survivors were counted at the toxicity check, usually on the fifth day, unless a day is given; later deaths do not show. Schedule codes are those of the source, taken here to give the interval after Q, in days (D) or hours (H), and the number of doses after X. Some entries were tested several times; their values stand side by side, smallest first. For survival time, this PubChem deposit counts one and a half times the control or more as active, and values a quarter to a half above the control carry no call in these data; other NCI protocols may use other cut-offs. Signs of the kind (2×) count equal records among those shown. Some T/C values carry the count of animals alive at the toxicity check (mostly the fifth day); without a count, all were alive then.

Turning to `NC(=S)N/N=C/c1ccc(OC(=O)COc2ccc(Cl)cc2)cn1`, the T/C under setting [1] is 126 % of control; the T/C (T/C endpoint: mean survival time, dose: 200.0 mg/kg/injection, schedule: Q04DX002 (ip), vehicle: saline with Tween-80) was 130 % of control; the T/C under setting [2] is 130 % of control; the T/C under setting [3] was 130 and 149 % of control; the T/C (T/C endpoint: mean survival time, dose: 600.0 mg/kg/injection, schedule: Q01DX001 (ip), vehicle: saline with Tween-80) was 140 % of control; the T/C (T/C endpoint: mean survival time, dose: 800.0 mg/kg/injection, schedule: Q04DX002 (ip), vehicle: saline with Tween-80) was 141 % of control. Moreover, the T/C by setting is: (T/C endpoint: median survival time, dose: 25.0 mg/kg/injection, schedule: Q01DX009 (ip), vehicle: saline with Tween-80) 126 % of control; (T/C endpoint: median survival time, dose: 25.0 mg/kg/injection, schedule: Q01DX009 (ip), vehicle: saline) 140 % of control; (T/C endpoint: median survival time, dose: 50.0 mg/kg/injection, schedule: Q01DX009 (ip), vehicle: saline with Tween-80) 146 % of control; (T/C endpoint: median survival time, dose: 59.0 mg/kg/injection, schedule: Q01DX009 (ip), vehicle: saline with Tween-80) 147 % of control; (T/C endpoint: median survival time, dose: 400.0 mg/kg/injection, schedule: Q01DX009 (ip), vehicle: saline with Tween-80) 143 % of control [5 of 6 alive]. Also, the survivor count is recorded as 8 of 10 (T/C endpoint: mean survival time, dose: 450.0 mg/kg/injection, schedule: Q01DX009 (ip), vehicle: saline with Tween-80) and 5 of 6 (T/C endpoint: median survival time, dose: 450.0 mg/kg/injection, schedule: Q01DX009 (ip), vehicle: saline with Tween-80).
In the case of `Cc1occc1S(N)(=O)=O`, the survivor count is listed as 1 of 3 (T/C endpoint: mean survival time, dose: 150.0 mg/kg/injection, schedule: Q04DX002 (ip), vehicle: saline with Tween-80) and 1 of 3 (T/C endpoint: mean survival time, dose: 300.0 mg/kg/injection, schedule: Q04DX002 (ip), vehicle: saline with Tween-80).
On to `Cn1c(=O)c2c(ncn2-c2ccncc2)n(C)c1=O`, for which the survivor count (T/C endpoint: mean survival time, dose: 200.0 mg/kg/injection, schedule: Q01DX005 (ip), vehicle: saline with Tween-80) is 1 of 6.
Turning to `CC1(C)SC(C(NC(=O)COc2ccccc2)C(=O)O)NC1C(=O)O` (stereo not given), the survivor count under setting [4] is on record as 0 of 6.
For the molecule `COC1OC2COc3ccccc3OC2C(N)C1N(C)c1ccccc1` (stereo not given), the survivor count (T/C endpoint: mean survival time, dose: 300.0 mg/kg/injection, schedule: Q01DX001 (ip), vehicle: saline with Tween-80) is 3 of 6.
On to `NNc1nnc(Cl)cc1N`, for which the survivor count runs as follows: under setting [5], 1 of 6; under setting [4], 0 of 6.
With `[Cl][Pt+2][Cl].[NH-]CC(O)c1ccc2oc3ccccc3c2c1.[NH-]CC(O)c1ccc2oc3ccccc3c2c1` (stereo not given), the survivor count (T/C endpoint: median survival time, dose: 160.0 mg/kg/injection, schedule: Q04DX003 (ip), vehicle: saline with Tween-80) was 2 of 6 and the survivor count (T/C endpoint: median survival time, dose: 320.0 mg/kg/injection, schedule: Q04DX003 (ip), vehicle: saline with Tween-80) is 0 of 6.
As for `CCCCCCCCCCCCCCCCOC(=O)c1cc([N+](=O)[O-])cc([N+](=O)[O-])c1Sc1ncnc2nc[nH]c12`, the T/C runs as follows: (T/C endpoint: mean survival time, dose: 62.5 mg/kg/injection, schedule: Q01DX005 (ip), vehicle: other) 127 % of control; (T/C endpoint: mean survival time, dose: 100.0 mg/kg/injection, schedule: Q01DX005 (ip), vehicle: other) 140 % of control; (T/C endpoint: mean survival time, dose: 125.0 mg/kg/injection, schedule: Q01DX005 (ip), vehicle: other) 141 % of control; (T/C endpoint: mean survival time, dose: 200.0 mg/kg/injection, schedule: Q01DX005 (ip), vehicle: other) 134 and 136 % of control. Moreover, the survivor count (T/C endpoint: mean survival time, dose: 400.0 mg/kg/injection, schedule: Q01DX005 (ip), vehicle: other) is 3 of 6.
As to `O=C1NC(c2ccccc2)N=C2Oc3ccccc3C=C12` (stereo not given), the T/C (T/C endpoint: mean survival time, dose: 12.5 mg/kg/injection, schedule: Q01DX009 (ip), vehicle: saline with Tween-80) is 97 (2×), 98, 104 % of control; the T/C (T/C endpoint: mean survival time, dose: 25.0 mg/kg/injection, schedule: Q01DX009 (ip), vehicle: saline with Tween-80) was 95, 105 (2×), 119 % of control; the T/C (T/C endpoint: mean survival time, dose: 50.0 mg/kg/injection, schedule: Q01DX009 (ip), vehicle: saline with Tween-80) is on record as 93, 98, 101, 127 % of control. For the same molecule, the survivor count under setting [6] was 2 of 6 and 6 of 6.
On to `O=C(CNC(=O)Nc1cccc([N+](=O)[O-])c1)N/N=C/C=C/c1ccccc1`, for which the survivor count under setting [6] is given as 3 of 3.
For `CN(C)c1ccc2c(Nc3ccc(NS(C)(=O)=O)cc3)c3ccc(N(C)C)cc3nc2c1`, the T/C (T/C endpoint: median survival time, dose: 25.0 mg/kg/injection, schedule: Q01DX009 (ip), vehicle: Klucel (hydroxypropylcellulose) (HPC)) was 131 and 138 % of control; the T/C (T/C endpoint: median survival time, dose: 50.0 mg/kg/injection, schedule: Q01DX009 (ip), vehicle: Klucel (hydroxypropylcellulose) (HPC)) is 135 % of control.
As for `Cc1nnnn1C12CC3CC(CC(C3)C1)C2`, the survivor count (T/C endpoint: mean survival time, dose: 18.8 mg/kg/injection, schedule: Q01DX009 (ip), vehicle: saline with Tween-80) is recorded as 6 of 6 and the survivor count (T/C endpoint: mean survival time, dose: 37.5 mg/kg/injection, schedule: Q01DX009 (ip), vehicle: saline with Tween-80) was 2 of 6.
On to `Cc1nc2ccc(CCN3CCN(c4ccccc4Cl)CC3)cc2[nH]1`, for which the T/C (T/C endpoint: mean survival time, dose: 100.0 mg/kg/injection, schedule: Q04DX003 (ip), vehicle: Klucel (hydroxypropylcellulose) (HPC)) was 126 % of control. Further, the survivor count is given as 1 of 6 (T/C endpoint: mean survival time, dose: 200.0 mg/kg/injection, schedule: Q04DX003 (ip), vehicle: Klucel (hydroxypropylcellulose) (HPC)) and 0 of 6 (T/C endpoint: mean survival time, dose: 400.0 mg/kg/injection, schedule: Q04DX003 (ip), vehicle: Klucel (hydroxypropylcellulose) (HPC)).
Take `CC1(C)N=C(N)N=C(N)N1c1ccc(C(=O)c2ccccc2)cc1`: the survivor count runs as follows: under setting [5], 0 of 6; under setting [4], 0 of 6.
For `NC(=O)NN=C1CCC(CC2CCCCC2)CC1` (stereo not given), the survivor count under setting [5] is 3 of 6 and the survivor count under setting [4] is recorded as 0 of 6.
As for `CC1(C)N=C(N)N=C(N)N1c1cc(Cl)cc(CCNC(=O)Nc2ccc(S(=O)(=O)F)cc2)c1`, the survivor count runs as follows: under setting [7], 0 of 6; under setting [2], 0 of 6.
In the case of `N=C1N(c2ccccc2)CCN1c1ccccc1`, the survivor count (T/C endpoint: mean survival time, dose: 25.0 mg/kg/injection, schedule: Q04DX003 (ip), vehicle: saline with Tween-80) is recorded as 2 of 3; the survivor count (T/C endpoint: mean survival time, dose: 100.0 mg/kg/injection, schedule: Q04DX003 (ip), vehicle: saline) is recorded as 0 of 3; the survivor count (T/C endpoint: mean survival time, dose: 200.0 mg/kg/injection, schedule: Q04DX003 (ip), vehicle: saline) is recorded as 0 of 3; the survivor count (T/C endpoint: mean survival time, dose: 400.0 mg/kg/injection, schedule: Q04DX003 (ip), vehicle: saline) is on record as 0 of 3.
In the case of `CCOC(=O)/C=C/CP(=O)(OCC)OCC`, the survivor count (T/C endpoint: mean survival time, dose: 100.0 mg/kg/injection, schedule: Q01DX001 (ip), vehicle: carboxymethylcellulose (CMC)) is reported as 0 of 4; the survivor count (T/C endpoint: mean survival time, dose: 200.0 mg/kg/injection, schedule: Q01DX001 (ip), vehicle: carboxymethylcellulose (CMC)) is 0 of 4; the survivor count (T/C endpoint: mean survival time, dose: 400.0 mg/kg/injection, schedule: Q01DX001 (ip), vehicle: carboxymethylcellulose (CMC)) was 0 of 4.
As to `COC(=O)C1C(=O)CC2N(C)C1C(C)(C)C2(C)C` (stereo not given), the survivor count under setting [3] is on record as 0 of 3.
Turning to `O=C(CCCl)OCCCl`, under setting [4], the survivor count is on record as 1 of 6.
As for `N#CCCCN1C(=O)c2ccccc2C1=O`, the survivor count (T/C endpoint: mean survival time, dose: 400.0 mg/kg/injection, schedule: Q01DX009 (ip), vehicle: Klucel (hydroxypropylcellulose) (HPC)) is 6 of 6.
On to `CCCCNC(=S)N/N=C/c1ccccn1`, for which the survivor count under setting [3] is reported as 0 of 3.
Take `CC1CC(C)(C)[N+](C)=C(CCc2ccccc2)O1` (stereo not given): the survivor count reads like this: under setting [7], 1 of 6; under setting [2], 0 of 6.
`CCN(CC)CCN1CC2CCCCC2C1` (stereo not given): the survivor count under setting [1] was 1 of 6 and the survivor count (T/C endpoint: mean survival time, dose: 400.0 mg/kg/injection, schedule: Q01DX009 (ip), vehicle: saline with Tween-80) is 0 of 6.
